# Test results published in publication PMC3720870, “Chiral Hydroxylation at the Mononuclear Nonheme Fe(II) Center of 4-(S) Hydroxymandelate Synthase – A Structure-Activity Relationship Analysis” (PLoS ONE, 2013).
# Target: T1, Hms (Streptomyces coelicolor, UniProt Q9Z4X7)
# T1 construct: gene SCO3229; full-length, C-terminal Strep-tag II kept, expressed in E. coli BL21(DE3) from pKYB1; monomer, ~45 kDa
# T1 sequence (Q9Z4X7 1-371): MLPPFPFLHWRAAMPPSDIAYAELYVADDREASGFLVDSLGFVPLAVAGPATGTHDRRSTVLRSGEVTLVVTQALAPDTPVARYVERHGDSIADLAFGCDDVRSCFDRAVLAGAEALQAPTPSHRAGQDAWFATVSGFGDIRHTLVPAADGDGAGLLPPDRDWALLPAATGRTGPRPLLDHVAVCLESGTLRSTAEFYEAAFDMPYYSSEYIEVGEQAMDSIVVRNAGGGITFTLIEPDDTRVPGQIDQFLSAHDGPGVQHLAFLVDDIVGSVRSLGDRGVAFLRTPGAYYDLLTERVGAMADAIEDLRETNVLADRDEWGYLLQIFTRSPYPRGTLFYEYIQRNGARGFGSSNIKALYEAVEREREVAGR
# Assay: O2 consumption, micro-optode, steady state
# Assay type: biochemical
# Conditions: apparent constant at air saturation; 20 mM Tris/HCl pH 7.5, 25 °C; no added Fe(II)
# Excerpt: O2 consumption, micro-optode, steady state on Hms
compound,measurement,value
"O=C(O)C(=O)Cc1ccc(O)cc1 [HPP, p-hydroxyphenylpyruvic acid]",Km,220 ± 80 µM
